These are yes or no findings as the source states them, for the method shown. In cells and extracts the contact can be indirect. These calls come from enrichment with a bait or labelling near it, and not all partners need be listed.
Molecular target: T1, N-biotin wild type CARP-1 (614–638) peptide (human)
T1 sequence (peptide, biotin on the N-terminus): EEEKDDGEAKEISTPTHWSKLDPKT
Test: cross-linking + affinity purification with mass spectrometry; K-CLASP: ADR-treated HeLa lysate (500 µg) with N-biotin CARP-1 peptide (1 mM) and ATP-ArN3 (5 mM), 31°C, 2 h, UV 365 nm; streptavidin resin; LC-MS/MS; hits enriched ≥1.2-fold over the S626,T627/AA peptide; only the target purified

- binding: binds
B1: Mitogen-activated protein kinase 12/p38γ (protein, UniProt P53778 1-367)
chain: MSSPPPARSGFYRQEVTKTAWEVRAVYRDLQPVGSGAYGAVCSAVDGRTGAKVAIKKLYRPFQSELFAKRAYRELRLLKHMRHENVIGLLDVFTPDETLDDFTDFYLVMPFMGTDLGKLMKHEKLGEDRIQFLVYQMLKGLRYIHAAGIIHRDLKPGNLAVNEDCELKILDFGLARQADSEMTGYVVTRWYRAPEVILNWMRYTQTVDIWSVGCIMAEMITGKTLFKGSDHLDQLKEIMKVTGTPPAEFVQRLQSDEAKNYMKGLPELEKKDFASILTNASPLAVNLLEKMLVLDAEQRVTAGEALAHPYFESLHDTEDEPQVQKYDDSFDDVDRTLDEWKRVTYKEVLSFKPPRQLGARVSKETPL

— article PMC11096501
